Taken from: PubChem BioAssay AID1224830 (NIAID, 2016)

Test: 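Genes whose knock-down alters the TNF-alpha reporter response to LPS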 (primary screen)
System: human THP-1 monocytic leukaemia cells, TNF dual-luciferase reporter clone, PMA-differentiated to macrophage-like cells
Reagents: siRNA pool against human genes, 50 nM
Duration: LPS for 4 h, given about 3 days after siRNA transfection
Challenge: bacterial LPS (TLR4 ligand), 10 ng/ml
Read-out: 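TNF firefly reporter luminescence divided by renilla, normalised to the plate median, then turned into a robust z-score for each replicate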
Reading the numbers: TNF reporter robust z-score: higher = stronger TNF reporter response to LPS
Call rule: 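a well is active when its z-score exceeds 2.8 or falls below -1.5; control wells carry no call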
Here is a random part of about 18,000 deposited reagents. Over the whole deposit, about 2,900 (16%) are marked active. 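Calls are made per well; low scores hint the gene aids the LPS response, high scores that it dampens it.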 The numbers tell different reagents against one gene apart. Repeated entries: four replicate wells of each siRNA pool.

MID1IP1 (MID1 interacting protein 1) gave TNF reporter robust z-score -0.07; inactive.
After knock-down of MID1IP1 (MID1 interacting protein 1), the screen gave TNF reporter robust z-score -0.4; inactive.
Silencing of MID1IP1 (MID1 interacting protein 1) came out at: TNF reporter robust z-score -0.41; inactive.
Depletion of MID1IP1 (MID1 interacting protein 1) gave: TNF reporter robust z-score 1.68; inactive.
Depletion of CSAG2 (CSAG family member 2) #1 resulted in: TNF reporter robust z-score -1.51; active.
With knock-down of CSAG2 (CSAG family member 2) #1, the screen gave TNF reporter robust z-score -1.88; active.
With knock-down of CSAG2 (CSAG family member 2) #1, the record shows TNF reporter robust z-score -1.49; inactive.
For CSAG2 (CSAG family member 2) #1 the deposit lists TNF reporter robust z-score -1.32; inactive.
With knock-down of CSAG2 (CSAG family member 2) #2, the record shows TNF reporter robust z-score 0.27; inactive.
Against CSAG2 (CSAG family member 2) #2, the entry reads TNF reporter robust z-score 0.81; inactive.
Against CSAG2 (CSAG family member 2) #2 the deposit lists TNF reporter robust z-score 0.74; inactive.
Against CSAG2 (CSAG family member 2) #2, the entry reads TNF reporter robust z-score 2.25; inactive.
Against IL24 (interleukin 24) the deposit lists TNF reporter robust z-score 1.05; inactive.
IL24 (interleukin 24) gave TNF reporter robust z-score 0.69; inactive.
With knock-down of IL24 (interleukin 24), the record shows TNF reporter robust z-score 1.91; inactive.
Against IL24 (interleukin 24) the deposit lists TNF reporter robust z-score 0.57; inactive.
Silencing of SLC38A9 gave: TNF reporter robust z-score -0.1; inactive.
For SLC38A9, the values are TNF reporter robust z-score 0.1; inactive.
For SLC38A9 the deposit lists TNF reporter robust z-score 0.58; inactive.
Against SLC38A9, the entry reads TNF reporter robust z-score 0.96; inactive.
ZNF501 (zinc finger protein 501) scored TNF reporter robust z-score -1.63; active.
With knock-down of ZNF501 (zinc finger protein 501) the results were TNF reporter robust z-score -1.26; inactive.
After knock-down of ZNF501 (zinc finger protein 501), the record shows TNF reporter robust z-score -1.19; inactive.
ZNF501 (zinc finger protein 501) scored TNF reporter robust z-score -0.45; inactive.
For EVC (EvC ciliary complex subunit 1), the entry reads TNF reporter robust z-score -0.38; inactive.
Silencing of EVC (EvC ciliary complex subunit 1) gave: TNF reporter robust z-score -0.27; inactive.
With knock-down of EVC (EvC ciliary complex subunit 1), the record shows TNF reporter robust z-score -0.51; inactive.
EVC (EvC ciliary complex subunit 1) showed TNF reporter robust z-score 0.86; inactive.
For TMEM215 (transmembrane protein 215), the entry reads TNF reporter robust z-score 0.26; inactive.
With knock-down of TMEM215 (transmembrane protein 215), the screen gave TNF reporter robust z-score 1.03; inactive.
For TMEM215 (transmembrane protein 215), the values are TNF reporter robust z-score -0.52; inactive.
Depletion of TMEM215 (transmembrane protein 215) came out at: TNF reporter robust z-score 1.15; inactive.

In a second layout: results already given
gene knocked down	reagent no.	TNF reporter robust z-score	Call
ZNF501 (zinc finger protein 501)	1	-1.63	active
ZNF501 (zinc finger protein 501)	1	-1.26	inactive
ZNF501 (zinc finger protein 501)	1	-1.19	inactive
ZNF501 (zinc finger protein 501)	1	-0.45	inactive
EVC (EvC ciliary complex subunit 1)	1	-0.38	inactive

Continued.
CDC37 (cell division cycle 37, HSP90 cochaperone) gave TNF reporter robust z-score 0.93; inactive.
After knock-down of CDC37 (cell division cycle 37, HSP90 cochaperone) the results were TNF reporter robust z-score 1.59; inactive.
CDC37 (cell division cycle 37, HSP90 cochaperone) scored TNF reporter robust z-score 1.81; inactive.
CDC37 (cell division cycle 37, HSP90 cochaperone) gave TNF reporter robust z-score 1.48; inactive.
Knock-down of UTP14A (UTP14A small subunit processome component) came out at: TNF reporter robust z-score -0.27; inactive.
Against UTP14A (UTP14A small subunit processome component), the entry reads TNF reporter robust z-score -0.67; inactive.
With knock-down of UTP14A (UTP14A small subunit processome component) the results were TNF reporter robust z-score -1.22; inactive.
With knock-down of UTP14A (UTP14A small subunit processome component) the results were TNF reporter robust z-score 1.51; inactive.
For NBPF15 (NBPF member 15), the values are TNF reporter robust z-score -0.47; inactive.
NBPF15 (NBPF member 15) scored TNF reporter robust z-score -0.43; inactive.
Depletion of NBPF15 (NBPF member 15) came out at: TNF reporter robust z-score 1.37; inactive.
Knock-down of NBPF15 (NBPF member 15) resulted in: TNF reporter robust z-score -1.11; inactive.
SLC6A1 showed TNF reporter robust z-score -1.12; inactive.
For SLC6A1, the entry reads TNF reporter robust z-score -0.95; inactive.
SLC6A1 scored TNF reporter robust z-score -1.05; inactive.
SLC6A1 gave TNF reporter robust z-score -0.26; inactive.
